Test results as given in patent US20240060072A1, “METHOD AND COMPOSITION FOR TREATING NON-ALCOHOLIC FATTY LIVER DISEASE, ASSOCIATED CONDITIONS AND SYMPTOMS” (THE HONG KONG POLYTECHNIC UNIVERSITY, priority 2022, published 2024).
Some results were stated once for a whole list of compounds, not compound by compound. For at least one compound, name, drawing or mass did not settle the structure.

Test system: HFD-fed mice
Assay: CCl4 or STZ treatment of HFD-fed mice: hepatic mRNA by RT-qPCR
Type: in vivo, mouse
Details: compared to untreated HFD-fed mice

CN(N=O)C(=O)N[C@@H]1[C@@H](O)[C@H](O)[C@@H](CO)O[C@@H]1O [STZ]
increase of expression of IL-1 mRNA in livers: 4 to 5 fold
